## Percent effect of library compounds

A: 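Phenotypic screen: M. tuberculosis growth, cholesterol and DPPC medium, 4 days; the read-out is not stated. Compounds at 50 µM. Higher reads as more growth inhibition (inferred: compounds with an IC50 in retests scored well above the rest). About 69,000 compounds were tested under these conditions; 0.54% (about 370) showed 50% or more at least once.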
B: 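Whole-cell growth test on Mycobacterium tuberculosis, read after 3 days in glucose-containing 7H9 medium; the read-out is not stated. Concentration: 50 µM. The record gives no direction; compounds that gave an IC50 in retests scored well above the rest, so higher reads as more growth inhibition. Size under these conditions: about 69,000 compounds, about 760 of them at 50% or above in at least one test.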

Each number is a percent effect as filed.
The controls that fix the scale are not given in the record; negative values are as filed.
The compounds are a random part of those screened.
Two or more numbers in one place are separate tests of the same structure; such repeats can differ widely.

- Cc1sc2c(C3CCCN(C(C)C)C3)nc(C)n2c1C (stereo not given) : A: 0.7481%; B: 33.25%
- Cc1cccc(-c2nc(C)nn2CC(=O)NC(C)C2CC2)c1 (stereo not given) : A: -8.811%; B: -5.783%
- Cc1csc(CNC(=O)NC2CCCN(S(C)(=O)=O)C2)n1 (stereo not given) : A: -15.82%; B: -18.59%
- COc1ccccc1C(NCc1ccc(SC)cc1)c1nccn1C (stereo not given) : A: -1.885%; B: -10.06%
- CCOc1cc(CNC(=O)c2cnn(CC)c2C(F)(F)F)ccn1 : A: 11.47%; B: 16.17%
- CNCC(=O)N1CCC(c2ccnc(Nc3ccc(C)cn3)n2)C1.Cl (stereo not given) : A: 6.336%; B: 6.744%
- CC(C)Oc1ccccc1C1CC(=O)Nc2nc(N3CCOCC3)sc21 (stereo not given) : A: 9.024%; B: 28.66%
- [H][C@]12CC[C@@]3(N=C(c4ccccc4)NC3=O)[C@@]1([H])CN(C(=O)c1cccs1)C2 : A: -23.86%; B: -19.96%
- O=C(CCn1ccccc1=O)N1CCCC(COc2ccc(F)cc2)C1 (stereo not given) : A: -7.878%; B: -8.782%
- COc1cccc(S(=O)(=O)N2CCCCC2CCN2CCOCC2)c1 (stereo not given) : A: -3.49%; B: -10.24%
- O=C(Nc1ccccc1)N1CCc2nc(C(=O)N3CCCC3)sc2CC1 : A: 16.47%; B: 33.47%
- Cc1nn(C)cc1-c1ccnc(N(C)Cc2cccs2)n1 : A: 8.754%; B: 17.47%
- Clc1cccc(CNC2CCN(CCc3ccncc3)CC2)c1 : A: -8.966%; B: -7.1%
- CC(C)[C@H]1CN(Cc2ccccc2C#N)C[C@@H]1NC(=O)C1CCOCC1 : A: -16.36%; B: 14.23%
- c1cncc(COCC2CN(Cc3ccco3)Cc3ccnn3C2)c1 (stereo not given) : A: -15.14%; B: -3.785%
- CN(Cc1cnn(C)c1)S(=O)(=O)N1CCCC1c1ccco1 (stereo not given) : A: -3.375% and 1.861%; B: 7.574% and 17.24%
- O=C(O)C(F)(F)F.[H][C@@]12CCN(Cc3ccccc3OC)C[C@]1(COC)CCO2 : A: -36.69%; B: -8.573%
- O=C(Nc1cc(F)ccc1OCC1CCCO1)N1CCCC1 (stereo not given) : A: 5.709%; B: 18.81%
- CNC(=O)c1cn(C)c(-c2nc3cc(NC(C)=O)ccc3n2C)c1OC : A: -5.119%; B: 6.895%
- Cc1ccnc(NC(=O)c2[nH]nc(C(C)C)c2Br)c1 : A: 24.02%; B: 36.82% and 32.68%
- NC(=O)CCCNC(=O)Cc1cccc(I)c1 : A: 15.06%; B: 29.32%
- [H][C@@]12C[C@H](C(=O)Nc3ccccc3)[C@@]([H])(CN(S(=O)(=O)c3ccccc3)C1)O2 : A: -15.67%; B: -5.665%
- CC(=O)N1CCN(C(=O)C2CCN(c3cccnn3)C2)CC1 (stereo not given) : A: -25.72%; B: -14.1%
- CCCSc1nc(N)c(NC(=O)c2ccc(OC)c(OC)c2)c(=O)[nH]1 : A: -14.84%; B: 5.457% and 1.847%
- CC1CN(CC(=O)NC2CCCC2)CCN1c1ccc2nncn2n1 (stereo not given) : A: -7.293%; B: 17.53%
- CCc1nc(C)c(C(=O)NCCNc2cnccn2)s1 : A: -13.66%; B: -30.84%

The last 2 entries again:

Compound,A,B
CC1CN(CC(=O)NC2CCCC2)CCN1c1ccc2nncn2n1 (stereo not given),-7.293%,17.53%
CCc1nc(C)c(C(=O)NCCNc2cnccn2)s1,-13.66%,-30.84%

From ChEMBL document CHEMBL3988442, “University of Dundee, Small-Polar-MMV Screening Library” (2021).